Data reported in paper PMC4832331.
No constants are given. Whether binding was seen depends on the method and setting. Some results given as binding are weak or reduced against the parent protein; the word gives no strength.

Amino acid sequences for entries named in this document (tags omitted). A change or cut given only in a name is not applied to a line headed by its entry. Residues count along the entry.
UniProt P52095, residues 1-710: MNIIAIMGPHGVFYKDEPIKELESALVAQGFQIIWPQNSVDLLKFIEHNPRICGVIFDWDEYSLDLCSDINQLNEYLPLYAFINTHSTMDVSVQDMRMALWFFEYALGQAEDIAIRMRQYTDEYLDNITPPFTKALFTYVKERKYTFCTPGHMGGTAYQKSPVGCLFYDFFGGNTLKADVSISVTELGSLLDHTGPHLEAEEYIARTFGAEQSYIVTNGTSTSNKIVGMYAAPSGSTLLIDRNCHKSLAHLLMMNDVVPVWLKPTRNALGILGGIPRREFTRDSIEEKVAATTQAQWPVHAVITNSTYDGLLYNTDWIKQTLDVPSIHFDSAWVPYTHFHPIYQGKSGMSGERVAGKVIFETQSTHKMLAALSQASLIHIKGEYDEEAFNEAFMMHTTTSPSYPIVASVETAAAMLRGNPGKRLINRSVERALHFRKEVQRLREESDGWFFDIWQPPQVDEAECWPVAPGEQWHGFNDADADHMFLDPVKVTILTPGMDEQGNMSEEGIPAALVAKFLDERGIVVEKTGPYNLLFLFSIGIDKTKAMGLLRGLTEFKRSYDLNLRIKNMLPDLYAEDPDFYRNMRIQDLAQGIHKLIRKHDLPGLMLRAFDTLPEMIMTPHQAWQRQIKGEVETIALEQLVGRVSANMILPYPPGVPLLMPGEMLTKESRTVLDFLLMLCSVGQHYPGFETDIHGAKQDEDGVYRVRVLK
UniProt P0A9H3: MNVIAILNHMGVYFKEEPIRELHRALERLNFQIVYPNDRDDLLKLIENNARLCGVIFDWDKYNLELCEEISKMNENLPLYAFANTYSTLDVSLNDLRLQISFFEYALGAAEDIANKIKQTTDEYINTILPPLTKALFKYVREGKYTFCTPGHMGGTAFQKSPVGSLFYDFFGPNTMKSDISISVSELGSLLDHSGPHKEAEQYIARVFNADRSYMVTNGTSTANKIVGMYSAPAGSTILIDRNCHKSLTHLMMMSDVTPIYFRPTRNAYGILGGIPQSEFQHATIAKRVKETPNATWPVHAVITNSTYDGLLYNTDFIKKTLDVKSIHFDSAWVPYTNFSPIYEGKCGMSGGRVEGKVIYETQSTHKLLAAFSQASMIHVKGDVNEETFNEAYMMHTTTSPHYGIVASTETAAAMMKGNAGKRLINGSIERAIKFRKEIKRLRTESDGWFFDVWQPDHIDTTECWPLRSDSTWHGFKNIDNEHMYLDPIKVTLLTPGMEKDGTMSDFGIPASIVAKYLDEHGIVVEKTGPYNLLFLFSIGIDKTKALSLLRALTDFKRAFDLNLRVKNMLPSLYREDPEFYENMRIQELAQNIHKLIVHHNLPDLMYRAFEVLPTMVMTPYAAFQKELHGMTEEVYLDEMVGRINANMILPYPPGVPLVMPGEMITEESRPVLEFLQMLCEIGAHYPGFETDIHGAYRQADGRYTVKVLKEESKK
UniProt P31473: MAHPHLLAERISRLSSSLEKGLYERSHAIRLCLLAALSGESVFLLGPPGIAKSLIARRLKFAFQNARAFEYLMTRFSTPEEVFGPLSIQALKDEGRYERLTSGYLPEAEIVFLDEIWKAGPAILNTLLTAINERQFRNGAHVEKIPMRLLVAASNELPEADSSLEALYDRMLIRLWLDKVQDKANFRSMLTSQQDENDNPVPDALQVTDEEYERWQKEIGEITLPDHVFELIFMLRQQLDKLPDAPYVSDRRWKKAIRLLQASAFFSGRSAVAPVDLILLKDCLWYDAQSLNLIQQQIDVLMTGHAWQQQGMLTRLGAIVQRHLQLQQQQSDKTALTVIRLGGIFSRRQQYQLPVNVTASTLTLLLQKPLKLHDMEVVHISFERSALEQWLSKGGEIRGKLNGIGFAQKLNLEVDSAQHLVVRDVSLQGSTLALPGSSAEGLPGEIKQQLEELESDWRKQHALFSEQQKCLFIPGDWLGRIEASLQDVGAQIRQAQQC

Key:
[1] = molecular target: Escherichia coli biosynthetic lysine decarboxylase LdcC (E. coli) (UniProt P52095); test: negative stain EM; 0.4 mg/ml RavA mixed with 0.3 mg/ml LdcI, LdcC, LdcCI or LdcIC; 2 mM ADP, 10 mM MgCl2, 20 mM Hepes, 150 mM NaCl, pH 7.4; 10 min at room temperature; 2% uranyl acetate; both purified
[2] = molecular target: LdcIC chimera (LdcI with the C-terminal β-sheet of LdcC) (E. coli) (UniProt P0A9H3+P52095); test: as above
[3] = molecular target: Escherichia coli inducible lysine decarboxylase LdcI (E. coli) (UniProt P0A9H3); test: cryo-EM structure; LdcI decamer with the LARA domain bound; acidic pH optimal for the enzymatic activity; data set of ref. 23 reprocessed in RELION; both purified

Row | Substance | binding [1] | binding [2] | binding [3]
1 | Escherichia coli AAA+ ATPase RavA (from UniProt P31473 1-498) (enzyme) | no binding (tested: 0.4 mg/ml RavA, 0.3 mg/ml LdcC) | no binding (tested: 0.4 mg/ml RavA, 0.3 mg/ml LdcIC) | –
2 | LARA domain of RavA (LdcI associating domain of RavA) (from UniProt P31473 332-437) (domain or fragment) | – | – | binds
